Results are given in words; binding and its absence hold for the method and conditions named. In cells and extracts the contact can be indirect. Binding calls can cover weak binding; strength is not graded here. Tags and fused reporters may be left off the sequences shown.
Target: RLK20-nYFP (full-length RLK20) (rice)
Experiment: split reporter; BiFC: RLK20-nYFP and RBOHB-cCFP in tobacco leaves by Agrobacterium-mediated transformation, fluorescence microscopy

- binding: binds
B1: RBOHB-cCFP (full-length RBOHB) (enzyme, UniProt Q5ZAJ0 1-905)
chain: MADLEAGMVAAATDQGNSTRSQDDAATLIPNSGNLGSSNRSTKTARFKDDDELVEITLDVQRDSVAIQEVRGVDEGGSGHGTGFDGLPLVSPSSKSGKLTSKLRQVTNGLKMKSSSRKAPSPQAQQSAKRVRKRLDRTKSSAAVALKGLQFVTAKVGNDGWAAVEKRFNQLQVDGVLLRSRFGKCIGMDGSDEFAVQMFDSLARKRGIVKQVLTKDELKDFYEQLTDQGFDNRLRTFFDMVDKNADGRLTAEEVKEIIALSASANKLSKIKERADEYTALIMEELDPTNLGYIEMEDLEALLLQSPSEAAARSTTTHSSKLSKALSMKLASNKEMSPVRHYWQQFMYFLEENWKRSWVMTLWISICIALFIWKFIQYRNRAVFGIMGYCVTTAKGAAETLKFNMALVLLPVCRNTITWIRSKTQVGAVVPFNDNINFHKVIAAGVAVGVALHAGAHLTCDFPRLLHASDAQYELMKPFFGEKRPPNYWWFVKGTEGWTGVVMVVLMAIAFTLAQPWFRRNKLKDSNPLKKMTGFNAFWFTHHLFVIVYTLLFVHGTCLYLSRKWYKKTTWMYLAVPVVLYVSERILRLFRSHDAVGIQKVAVYPGNVLALYMSKPPGFRYRSGQYIFIKCTAVSPYEWHPFSITSAPGDDYLSVHIRTRGDWTSRLRTVFSEACRPPTEGESGLLRADLSKGITDEKARFPKLLVDGPYGAPAQDYREYDVLLLIGLGIGATPLISIVKDVLNHIQGEGSVGTTEPESSSKAKKKPFMTKRAYFYWVTREEGSFEWFRGVMNEVSEKDKDGVIELHNHCSSVYQEGDARSALIVMLQELQHAKKGVDILSGTSVKTHFARPNWRSVFKKVAVSHENQRVGVFYCGEPVLVPQLRQLSADFTHKTNTRFDFHKENF

— PMC9103808
